Reference: PubChem BioAssay AID720576 (National Center for Advancing Translational Sciences (NCATS), 2013)
Inconclusive means that the source gave no clear call. Such entries were picked first, then a sample of the others. Potencies beside an inconclusive call are fits to weak or partial responses and may not hold up. Calls of active or inactive are those of the source. Calls come from the whole dose curve; as a rule, active = well fitted inhibition curve with a large enough effect; inconclusive = small, poorly fitted or top-dose-only effect; inactive = no such curve, though single readings can be large or run the other way.

assay: qHTS Assay for Inhibitors of Hepatitis C Virus (HCV): Cytotoxicity Counterscreen for Cherry-picked Compounds; conditions: HCV host cell line cytotoxicity counterscreen; activity change, negative = cytotoxicity: at 41.8 µM (top of the series)
How it was run: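 Huh cells, 1,000 per well, cultured 4 h, then exposed to compounds for 44 h at 37C, 5% CO2. Viability read as CellTiter-Glo luminescence after 15 min at room temperature.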
% is set by controls: 0 for no effect and ±100 for the full control effect; potency is the fitted concentration of half-maximal effect.
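Note: 44 h compound exposure; nearly all actives have a fitted effect of over 55% in size.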

SMILES | Potency | activity change, negative = cytotoxicity
CCCCCCCCn1ccc(=N)cc1 | active: 2.23 µM | 
Cc1ccc(S(=O)(=O)N2CCC(=O)N(CCOCc3ccc(C(F)(F)F)cc3)CC2)cc1 | inconclusive: 22.3 µM [inhibitor, partial curve, poor fit] | 
CC(=O)c1sc(NC(=O)CCS(=O)(=O)c2ccc(C)cc2)nc1C | inconclusive: 31.5 µM [inhibitor, partial curve, poor fit] | 
Cc1ccc(NCC(=O)N/N=C\c2ccc([N+](=O)[O-])o2)cc1 | inconclusive: 28 µM [inhibitor, partial curve, poor fit] | 
Cc1cnc(NC(=O)CCCc2nc3ccccc3s2)s1 |  | inactive: -34.7%
O=C(COc1ccc(/C=N/NC(=O)c2cc3ccccc3o2)cc1Cl)Nc1ccccc1 | active: 7.05 µM | 
Oc1ccc(CN2CCN(c3ccccc3)CC2)c2cccnc12 | active: 22.3 µM | 
COc1ccc(Cl)cc1NC(=O)c1oc(C)nc1C | inconclusive: 17.7 µM [inhibitor, partial curve, poor fit] | 
COc1ccccc1NC(=O)c1ccc(NC(=O)COC(=O)c2ccc(O)cc2)cc1 | inconclusive: 1.99 µM [inhibitor, single point] | 
COc1ccc([N+](=O)[O-])cc1NC(=O)CSc1ccc2ccccc2c1 | inconclusive: 8.87 µM [inhibitor, partial curve, poor fit] | 
CCCn1c(NC(=O)c2cccc(S(=O)(=O)N3CCCC3)c2)nc2ccccc21 | active: 8.87 µM | 
C/C(=N\Nc1ccc2nncn2n1)c1ccccn1 | inconclusive: 2.23 µM [inhibitor, full curve] | 
c1ccc(Nc2nc(NCc3ccco3)c3ccccc3n2)cc1 | active: 25 µM | 
Cc1sc(NC(=O)Cc2ccc3c(c2)OCO3)nc1-c1ccc2c(c1)CCN2C(=O)c1cccc(F)c1 |  | inconclusive: -55.5% [inhibitor]
Cc1nc(N)nc(N)c1CCCc1ccc(Cl)c(Cl)c1 | inconclusive: 0.705 µM [inhibitor, full curve, poor fit] | 
CCOc1ccccc1NC(=O)NC1CCCc2ccccc21 (stereo not drawn) |  | inactive: 30.6%
Cc1sc(NC(=O)Cc2ccc3c(c2)OCO3)nc1-c1ccc2c(c1)CCN2C(=O)c1ccc(F)cc1 |  | inactive: -21.2%
CNc1nc(N2CCc3ccccc32)ncc1F | inconclusive: 1.25 µM [inhibitor, full curve, poor fit] | 
COc1ccc(-c2csc(NC(C)c3nc4cc(Cl)c(Cl)cc4n3CCCO)n2)cc1 (stereo not drawn) |  | inactive: 11.1%
COc1ccc(CCNC(=O)c2cc3c(=O)n4ccccc4nc3n(CCCN3CCOCC3)c2=N)cc1 |  | inactive: 14%
COc1ccc(NC(=O)c2cc(-c3cc(C)cc(C)c3O)n[nH]2)cc1Cl | inconclusive: 31.5 µM [inhibitor, single point] | 
CC(C)Cn1c(N)c(C(=O)CSc2ccccc2)c(=O)n(C)c1=O | inconclusive: 7.91 µM [inhibitor, full curve, poor fit] | 
CCOC(=O)N1CCC(NC(=O)CCc2c(C)nc3c(c(C)nn3C(C)(C)C)c2C)CC1 | inconclusive: 0.315 µM [inhibitor, partial curve, poor fit] | 

Among those listed so far, six have an aryl methoxy group.
SMILES | Potency | activity change, negative = cytotoxicity
COc1ccc(Cl)cc1NC(=O)c1oc(C)nc1C | inconclusive: 17.7 µM [inhibitor, partial curve, poor fit] | 
COc1ccccc1NC(=O)c1ccc(NC(=O)COC(=O)c2ccc(O)cc2)cc1 | inconclusive: 1.99 µM [inhibitor, single point] | 
COc1ccc([N+](=O)[O-])cc1NC(=O)CSc1ccc2ccccc2c1 | inconclusive: 8.87 µM [inhibitor, partial curve, poor fit] | 
COc1ccc(-c2csc(NC(C)c3nc4cc(Cl)c(Cl)cc4n3CCCO)n2)cc1 (stereo not drawn) |  | inactive: 11.1%
COc1ccc(CCNC(=O)c2cc3c(=O)n4ccccc4nc3n(CCCN3CCOCC3)c2=N)cc1 |  | inactive: 14%
COc1ccc(NC(=O)c2cc(-c3cc(C)cc(C)c3O)n[nH]2)cc1Cl | inconclusive: 31.5 µM [inhibitor, single point] | 
